Measurements reported in patent US20080235828A1 (University of Manitoba, priority 2004, published 2008).
Results are given in words; binding and its absence hold for the method and conditions named. Some binding calls cover weakened binding; strength is not graded here. Tags and fused reporters may be left off the sequences shown.

Tests used:
[1] = target: T1, GST:FCA-WW fusion protein (3' end of FCA gamma possessing the WW domain, fused with GST) (Arabidopsis) (UniProt O04425); assay: GST:FCA-WW-FY complex on resin, dual 35S/3H counting
T1 sequence (looked up): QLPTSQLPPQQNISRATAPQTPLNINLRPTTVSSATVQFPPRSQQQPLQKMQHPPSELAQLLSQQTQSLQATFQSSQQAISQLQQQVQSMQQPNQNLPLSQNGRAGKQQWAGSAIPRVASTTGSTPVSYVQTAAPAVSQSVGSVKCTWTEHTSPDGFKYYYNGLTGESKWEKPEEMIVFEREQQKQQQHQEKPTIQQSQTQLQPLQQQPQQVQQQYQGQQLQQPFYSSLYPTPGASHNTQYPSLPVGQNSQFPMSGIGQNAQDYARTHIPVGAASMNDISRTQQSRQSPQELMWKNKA

[2] = target: T1, GST:FCA-WW fusion protein (3' end of FCA gamma possessing the WW domain, fused with GST) (Arabidopsis); assay: GST pull-down of [35S]-FY by GST:FCA, SDS-PAGE and autoradiography

B1: FY protein, in vitro translated and labeled with [35S]-methionine (protein, UniProt Q6NLV4 1-647, looked up)
chain: MYAGGDMHRGSQMPQPPMMRQSSASSTNINPDYHHPSGPFDPNVDSFGAKRMRKHTQRRAVDYTSTVVRYIQARTWQRDSRDRTTLQPTPAAAVDMLPTVAYSDNPSTSFAAKFVHASLNKNRCSINRVLWTPSGRRLITGSQSGEFTLWNGQSFNFEMILQAHDQPIRSMVWSHNENYMVSGDDGGTLKYWQNNMNNVKANKTAHKESIRDLSFCKTDLKFCSCSDDTTVKVWDFTKCVDESSLTGHGWDVKSVDWHPTKSLLVSGGKDQLVKLWDTRSGRELCSLHGHKNIVLSVKWNQNGNWLLTASKDQIIKLYDIRTMKELQSFRGHTKDVTSLAWHPCHEEYFVSGSSDGSICHWIVGHENPQIEIPNAHDNSVWDLAWHPIGYLLCSGSNDHTTKFWCRNRPADNPRDVLMQNQGYNEQGFGRQPDNFQPSEASPIPGAFVPGLTRNEGTIPGIGIAMPFDASSQGDHKQPLPGSMALGAPPLPPGPHPSLLGSGQQQGYQQQQQHQGHPQQMLPMPNMPHHQLPPSSHMPLHPHHLPRPMQMPPHGHMPPPSMPMSHQMPGSMGMQGGMNPQMSQSHFMGAPSGVFQGQPNSGGPQMYPQGRGGFNRPQMIPGYNNPFQQQQQPPLPPGPPPNNNQQHQ
modifications: [35S]-methionine label
[1]
  binding: binds
[2]
  binding: binds
